Source: article PMC11914573
These are yes or no findings as the source states them, for the method shown. Binding seen in cells or lysates may run through a third protein. Some results given as binding are weak or reduced against the parent protein; the word gives no strength.

B1: HK2 (enzyme, UniProt P52789 1-917)
chain: MIASHLLAYFFTELNHDQVQKVDQYLYHMRLSDETLLEISKRFRKEMEKGLGATTHPTAAVKMLPTFVRSTPDGTEHGEFLALDLGGTNFRVLWVKVTDNGLQKVEMENQIYAIPEDIMRGSGTQLFDHIAECLANFMDKLQIKDKKLPLGFTFSFPCHQTKLDESFLVSWTKGFKSSGVEGRDVVALIRKAIQRRGDFDIDIVAVVNDTVGTMMTCGYDDHNCEIGLIVGTGSNACYMEEMRHIDMVEGDEGRMCINMEWGAFGDDGSLNDIRTEFDQEIDMGSLNPGKQLFEKMISGMYMGELVRLILVKMAKEELLFGGKLSPELLNTGRFETKDISDIEGEKDGIRKAREVLMRLGLDPTQEDCVATHRICQIVSTRSASLCAATLAAVLQRIKENKGEERLRSTIGVDGSVYKKHPHFAKRLHKTVRRLVPGCDVRFLRSEDGSGKGAAMVTAVAYRLADQHRARQKTLEHLQLSHDQLLEVKRRMKVEMERGLSKETHASAPVKMLPTYVCATPDGTEKGDFLALDLGGTNFRVLLVRVRNGKWGGVEMHNKIYAIPQEVMHGTGDELFDHIVQCIADFLEYMGMKGVSLPLGFTFSFPCQQNSLDESILLKWTKGFKASGCEGEDVVTLLKEAIHRREEFDLDVVAVVNDTVGTMMTCGFEDPHCEVGLIVGTGSNACYMEEMRNVELVEGEEGRMCVNMEWGAFGDNGCLDDFRTEFDVAVDELSLNPGKQRFEKMISGMYLGEIVRNILIDFTKRGLLFRGRISERLKTRGIFETKFLSQIESDCLALLQVRAILQHLGLESTCDDSIIVKEVCTVVARRAAQLCGAGMAAVVDRIRENRGLDALKVTVGVDGTLYKLHPHFAKVMHETVKDLAPKCDVSFLQSEDGSGKGAALITAVACRIREAGQR
B2: HMGCS1 (enzyme, UniProt Q01581 1-520)
chain: MPGSLPLNAEACWPKDVGIVALEIYFPSQYVDQAELEKYDGVDAGKYTIGLGQAKMGFCTDREDINSLCMTVVQNLMERNNLSYDCIGRLEVGTETIIDKSKSVKTNLMQLFEESGNTDIEGIDTTNACYGGTAAVFNAVNWIESSSWDGRYALVVAGDIAVYATGNARPTGGVGAVALLIGPNAPLIFERGLRGTHMQHAYDFYKPDMLSEYPIVDGKLSIQCYLSALDRCYSVYCKKIHAQWQKEGNDKDFTLNDFGFMIFHSPYCKLVQKSLARMLLNDFLNDQNRDKNSIYSGLEAFGDVKLEDTYFDRDVEKAFMKASSELFSQKTKASLLVSNQNGNMYTSSVYGSLASVLAQYSPQQLAGKRIGVFSYGSGLAATLYSLKVTQDATPGSALDKITASLCDLKSRLDSRTGVAPDVFAENMKLREDTHHLVNYIPQGSIDSLFEGTWYLVRVDEKHRRTYARRPTPNDDTLDEGVGLVHSNIATEHIPSPAKKVPRLPATAAEPEAAVISNGEH

Molecular target: p62 (human (endogenous in HEC-1A and KLE)) (UniProt Q13501)
Experiment: co-IP; lysates of HEC-1A and KLE cells incubated with antibodies specific for HK2, HMGCS1 and P62, agarose beads, western blot; in KLE cells also after 10 uM 3-BrPA (HK2 inhibitor) for 24 h

| Binder | binding |
| --- | --- |
| B1 | binds |
| B2 | binds |
